Some of the results follow. These are further read-outs of the screen, such as a control signal, another cell line or another target. No call is given for them. The list favours compounds with an active or inconclusive main result. Potencies come from curve fits of mixed quality, noted in brackets.
Experiment: qHTS Assay for Lipid Storage Modulators in Drosophila S3 Cells;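 on cell number change: cells counted by Cell Tracker Red CMTPX staining in the red channel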
Settings: BODIPY lipid droplet fluorescence, 18-24 h; for cell number change: measured here: cell count max response, cells fed with added oleic acid
In short: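 Drosophila S3 cells got compounds at several concentrations plus oleic acid (400 uM solution). Laser-scanning cytometry with 488 nm excitation read lipid droplets at 500-530 nm and cells at 575-640 nm. Percent activity was relative to 20 uM Triacsin C.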

[1] = measured here: lipid fluorescence (Fed channel) AC50, cells fed with added oleic acid
[2] = measured here: cell number channel AC50, cells fed with added oleic acid

SMILES	cell number change [%]	AC50 [1]	AC50 [2]
CCOC(=O)N1CCC(NC(=O)c2cc(S(=O)(=O)N3CCc4ccccc43)cn2C)CC1	-4.46	2.59 µM [rising, full curve, poor fit]	–
COc1ccc(C(=O)NC(=S)N2CCCCC2)cc1[N+](=O)[O-]	19.6	–	–
COc1ccc(/C=N/NC(=O)c2ccc(COc3ccccc3Cl)o2)cc1	6.83	–	–
CC(C)(C)NC(=O)COc1ccc(CNCCc2ccccc2)cc1	15.1	23.1 µM [rising, single point]	–
O=C1c2oc3ccc(Br)cc3c(=O)c2C(c2cccc(F)c2)N1CCO (configuration not stated)	2.08	29.1 µM [falling, single point]	–
COc1cc(-c2c(-c3ccc4c(c3)OCO4)noc2C)ccc1F	21	–	–
O=[N+]([O-])c1ccc(-c2cn3nc(-c4ccccc4)c(-c4ccccc4)nc3n2)cc1	-9.24	3.66 µM [falling, full curve, poor fit]	6.51 µM [falling, single point]
Cc1ccc(NC2CCCN(C(=O)C3CCCCC3)C2)cc1C (configuration not stated)	-16.6	5.01 µM [falling, partial curve]	–
CC(OC(=O)C1CCCCC1)C(=O)Nc1cccc(Cl)c1 (configuration not stated)	-0.855	–	3.26 µM [falling, single point]
CSc1ccccc1NC(=O)CN(C)Cc1c(O)ccc2ccccc12	-4.84	–	–
COc1ccccc1NC(=O)/C(=C\c1cccnc1)NC(=O)c1ccc(C)cc1	15.7	6.51 µM [rising, single point]	–
Cc1c(Cl)cnc(NC(=O)CSc2nnc(C)n2Cc2ccccc2)c1Cl	13.1	–	2.91 µM [rising, single point]
Cc1ccc(S(=O)(=O)N2CCN(C)CC2c2ccccc2)cc1 (configuration not stated)	-20.9	–	–
Cc1ccccc1C(=O)Nc1cccc(C(=O)N/N=C/c2ccccn2)c1	7.91	–	–
COc1ccc(Cl)cc1NC(=S)N(CCCN1CCOCC1)Cc1cn(C)c2ccccc12	-2.11	–	–
Cc1ccc(-c2nc(C(Cl)Cl)c3ccccc3n2)cc1	-23.8	–	–
COc1ccc(S(=O)(=O)N2CC(=O)Nc3ccccc32)cc1C	-0.276	20.6 µM [falling, single point]	–
CCOc1ccc(NC(=O)C(=O)N/N=C/c2ccccc2F)cc1	35.3	–	29.1 µM [rising, single point]
C=CCOn1c(=O)c(-c2ccc(F)cc2)[n+]([O-])c2ccccc21	1.39	–	6.51 µM [rising, single point]
CCCCNC(=O)COC(=O)c1c2c(nc3ccccc13)/C(=C/c1cccs1)CC2	–	0.731 µM [falling, full curve]	0.00411 µM [rising, full curve, poor fit]
O=C(CN(Cc1ccc2c(c1)OCO2)C(=O)CNC(=O)c1ccco1)NC1CCCCC1	-19.6	–	–

2 compounds drawn at random from those above, as already listed:
SMILES	cell number change [%]	AC50 [1]	AC50 [2]
COc1ccc(/C=N/NC(=O)c2ccc(COc3ccccc3Cl)o2)cc1	6.83	–	–
Cc1ccc(-c2nc(C(Cl)Cl)c3ccccc3n2)cc1	-23.8	–	–

(continued)

SMILES	cell number change [%]	AC50 [1]	AC50 [2]
COc1ccc(S(=O)(=O)N(C)Cc2cccs2)cc1Br	44.4	–	20.6 µM [rising, partial curve]
O=C(CCCCCN1C(=O)CCC1=O)Nc1ccc2c(c1)OCO2	–	2.06 µM [rising, partial curve]	1.84 µM [rising, partial curve]
CCOc1ccc2oc(C(=O)O)c(C)c2c1	-9.03	0.00517 µM [falling, full curve, poor fit]	–
Cc1ccc(NC(=O)CNCc2ccccn2)cc1S(=O)(=O)N(C)C	–	–	0.00517 µM [rising, full curve, poor fit]
O=C(N/N=C/c1ccccc1OCc1ccccc1Cl)c1cccnc1	-27.3	6.51 µM [falling, single point]	0.0366 µM [falling, full curve, poor fit]
Cc1ccc(N(C(=O)CCC(=O)Nc2cc(C)on2)C(C(=O)NC2CCCC2)c2cccs2)cc1 (configuration not stated)	10.4	3.66 µM [rising, partial curve]	–
S=C1NC2(CCCCC2)Nc2ccccc21	9.9	–	–
Cc1ccc(NC2c3ccccc3C(=O)N2CCN2CCOCC2)cc1 (configuration not stated)	–	32.6 µM [rising, partial curve, poor fit]	–
CCn1c(-c2cccnc2Cl)nc2cc(C)c(C)cc21	48.5	–	14.6 µM [rising, partial curve, poor fit]
Cc1cc(C)nc(NS(=O)(=O)c2ccc(NC(=O)c3ccccc3[N+](=O)[O-])cc2)n1	19	29.1 µM [rising, single point]	–
COc1ccc(NC(=O)C23CCC(C2)C(C)(C)C3=O)cc1 (configuration not stated)	-15.8	29.1 µM [rising, single point]	–
COc1cc(C2C3=C(CCCC3=O)OC3=C2C(=O)CCC3)ccc1OCC(=O)Nc1ccccc1	–	–	0.82 µM [falling, full curve]
CCCCOc1ccccc1C1C(C(N)=O)=C(C)Nc2nnnn21 (configuration not stated)	7.44	29.1 µM [rising, single point]	–
O=C(CSCc1ccc(Cl)cc1)NN=C1CCCCCC1	13.2	1.84 µM [rising, full curve, poor fit]	–
CCOc1ccc(NC(=O)CN(C)C(=O)C2CCN(c3ncnc4sc(C)c(C)c34)CC2)cc1OCC	-29.8	–	–
Cc1ccccc1NC(=O)c1ccc(NC(=O)C2CCCO2)cc1 (configuration not stated)	5.13	–	–
O=C(NCCCc1ccccc1)C(=O)c1c[nH]c2ccccc12	49.6	11.6 µM [rising, single point]	5.8 µM [rising, partial curve]
Cc1ccc(NC(=O)COC(=O)C2=NN(c3ccccc3)C(=O)CC2)c(Br)c1	16.5	0.231 µM [rising, full curve, poor fit]	3.26 µM [rising, partial curve, poor fit]
Nc1nnc(Cc2c[nH]c3ccccc23)s1	-19.1	29.1 µM [rising, single point]	–
CN(C)c1ccc(C(CNC(=O)Cc2cccc3ccccc23)N(C)C)cc1 (configuration not stated)	18	–	–
Nc1nc(NCCCN2CCOCC2)nc(Nc2ccccc2)c1[N+](=O)[O-]	80.5	–	3.66 µM [falling, single point]

Source: PubChem BioAssay AID2685 (National Center for Advancing Translational Sciences (NCATS), 2010)
